The results in this text go back to publication PMC10298287.

Results are given in words; binding and its absence hold for the method and conditions named. Some binding calls cover weakened binding; strength is not graded here.

The assay concerns the target T1, AtIDD10 (JACKDAW) (Arabidopsis) (UniProt Q700D2).
T1 sequence: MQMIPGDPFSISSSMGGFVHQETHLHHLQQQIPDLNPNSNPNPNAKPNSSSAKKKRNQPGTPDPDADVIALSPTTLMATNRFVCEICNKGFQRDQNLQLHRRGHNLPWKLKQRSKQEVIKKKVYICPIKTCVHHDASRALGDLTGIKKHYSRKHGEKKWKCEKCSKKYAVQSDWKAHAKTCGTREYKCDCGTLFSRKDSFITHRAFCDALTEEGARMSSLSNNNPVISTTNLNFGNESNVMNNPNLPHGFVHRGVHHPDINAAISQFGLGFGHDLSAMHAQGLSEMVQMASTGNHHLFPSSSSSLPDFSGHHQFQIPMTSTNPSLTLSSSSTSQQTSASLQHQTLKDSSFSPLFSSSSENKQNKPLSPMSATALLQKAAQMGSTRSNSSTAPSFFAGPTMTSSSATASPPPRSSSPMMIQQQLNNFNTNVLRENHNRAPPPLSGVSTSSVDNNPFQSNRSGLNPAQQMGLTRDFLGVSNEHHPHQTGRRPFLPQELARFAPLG
As to the kind of experiment: two-hybrid; IDD baits in pGBT9, GRAS preys in pGAD424, yeast strain PJ69-4A; serial dilutions spotted on -LW and -LWH, 3-amino-1,2,4-triazole added as needed; 3 days at 30 °C.

B1: AtSHR (protein, UniProt Q9SZF7 1-531)
chain: MDTLFRLVSLQQQQQSDSIITNQSSLSRTSTTTTGSPQTAYHYNFPQNDVVEECFNFFMDEEDLSSSSSHHNHHNHNNPNTYYSPFTTPTQYHPATSSTPSSTAAAAALASPYSSSGHHNDPSAFSIPQTPPSFDFSANAKWADSVLLEAARAFSDKDTARAQQILWTLNELSSPYGDTEQKLASYFLQALFNRMTGSGERCYRTMVTAAATEKTCSFESTRKTVLKFQEVSPWATFGHVAANGAILEAVDGEAKIHIVDISSTFCTQWPTLLEALATRSDDTPHLRLTTVVVANKFVNDQTASHRMMKEIGNRMEKFARLMGVPFKFNIIHHVGDLSEFDLNELDVKPDEVLAINCVGAMHGIASRGSPRDAVISSFRRLRPRIVTVVEEEADLVGEEEGGFDDEFLRGFGECLRWFRVCFESWEESFPRTSNERLMLERAAGRAIVDLVACEPSDSTERRETARKWSRRMRNSGFGAVGYSDEVADDVRALLRRYKEGVWSMVQCPDAAGIFLCWRDQPVVWASAWRPT
Turning to B1, the binding entry is given as “binds”.
